# PubChem BioAssay AID1259308 | NCATS, 2017
# Screen: 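Candidate targets for better recombinant protein yield in mammalian cells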 (primary screen)
# Cell system: human HEK293 embryonic kidney cells stably expressing firefly luciferase (HEK-CMV-Luc2-Hygro)
# Reagents: single siRNA against human genes, 0.8 pmol siRNA per well
# Duration: 72 h
# Measured: 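Luciferase light (ONE-Glo) measured on one replicate plate set and viability (CellTiter-Glo) on the other, scaled to a negative control siRNA, with robust z-scores and luciferase per cell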
# Scale: total luciferase, z-score and total luciferase, % of control: higher = more reporter protein produced; luciferase per cell, z-score: higher = more reporter output per viable cell; viable cells, % of control: higher = more viable cells
# Hit rule: 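An siRNA counts as active if its total luciferase robust z-score exceeds 3; genes with two or more such siRNAs out of three were retested with fresh siRNAs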
# Meaning of the calls: active = raised luciferase; inactive = no rise
# Shown is a random part of about 59,000 reagents tested. About 1,510 of them (2.6%) count as active. 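Calls use total luciferase alone and ignore viability, so some active siRNAs may act by altering cell number.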 Reagents against one gene are numbered here. No sequences are given here.
gene knocked down,reagent,"total luciferase, z-score","total luciferase, % of control","luciferase per cell, z-score","viable cells, % of control",call
SULT1C2,1,-0.0932,80,-0.565,104,inactive
SULT1C2,2,-0.241,77.1,0.916,67.7,inactive
SULT1C2,3,0.39,89.6,0.104,97.4,inactive
TMEM127,1,-1.05,61.1,0.477,60.2,inactive
TMEM127,2,0.975,101,0.187,108,inactive
TMEM127,3,-0.709,67.8,-0.702,91.1,inactive
COL5A1,1,0.7,95.8,0.818,86.3,inactive
COL5A1,2,0.296,87.8,0.412,88,inactive
COL5A1,3,0.728,96.4,1.15,79.5,inactive
TBX5,1,-0.294,76,-0.325,92.6,inactive
TBX5,2,3.22,146,2.64,81.5,active
TBX5,3,1.03,102,0.924,89.7,inactive
ACKR3,1,-0.351,74.9,-0.424,93.6,inactive
ACKR3,2,-0.215,77.6,-0.703,104,inactive
ACKR3,3,-0.97,62.6,-1.07,92.7,inactive
SLC25A15,1,0.723,96.3,0.692,89.7,inactive
SLC25A15,2,2.15,125,1.47,94.6,inactive
SLC25A15,3,-0.535,71.3,-0.849,99.6,inactive
RBM15,1,-0.77,66.6,-0.832,92.6,inactive
RBM15,2,-0.439,73.2,-0.447,92,inactive
RBM15,3,-0.781,66.3,-0.829,92.2,inactive
RCAN2,1,0.164,85.1,0.222,89.7,inactive
RCAN2,2,-0.0186,81.5,0.337,83.4,inactive
RCAN2,3,-1.21,57.7,-1.02,84.3,inactive
FRMPD3,1,-0.305,75.8,-0.424,94.7,inactive
FRMPD3,2,-0.532,71.3,-0.638,94.3,inactive
FRMPD3,3,-0.801,66,-1.74,116,inactive
SLC2A1,1,-2.29,36.4,-2.67,82.1,inactive
SLC2A1,2,-1.35,55.1,-1.27,85.9,inactive
SLC2A1,3,0.578,93.4,0.717,86.4,inactive
POM121L12,1,0.569,93.2,0.053,103,inactive
POM121L12,2,1.51,112,0.944,97.5,inactive
POM121L12,3,-0.8,66,-0.955,94.8,inactive
PGK1,1,-0.334,75.2,0.206,79.6,inactive
PGK1,2,-0.92,63.6,-0.804,87.8,inactive
PGK1,3,1.32,108,0.167,116,inactive
THAP10,1,0.0616,83.1,-0.493,106,inactive
THAP10,2,-0.512,71.7,-0.877,101,inactive
THAP10,3,-0.339,75.1,-0.955,108,inactive
KRTAP26-1,1,3.5,151,2.31,92.3,active
KRTAP26-1,2,-0.538,71.2,-0.13,82.3,inactive
KRTAP26-1,3,-0.139,79.1,0.278,82.2,inactive
MMP28,1,0.954,101,0.663,94.7,inactive
MMP28,2,-0.907,63.8,-1.69,111,inactive
MMP28,3,1.97,121,1.19,99,inactive
AKAP9,1,0.5,91.8,0.0412,102,inactive
AKAP9,2,0.328,88.4,1.05,75,inactive
AKAP9,3,-1.3,55.9,-1.42,90.8,inactive
PCGF6,1,-0.471,72.5,-0.717,97.9,inactive
PCGF6,2,-0.659,68.8,-0.486,87.4,inactive
PCGF6,3,-1.12,59.6,-0.543,76.8,inactive
GPR135,1,2.11,124,1.89,84.3,inactive
GPR135,2,0.349,88.8,-0.0943,102,inactive
GPR135,3,-0.522,71.5,0.65,67.3,inactive
RAP2B,1,0.0965,83.8,0.437,83.5,inactive
RAP2B,2,-0.49,72.1,-0.596,94.3,inactive
RAP2B,3,-0.272,76.5,0.0473,84.4,inactive

3 entries from above, arranged by “luciferase per cell, z-score”, descending:
gene knocked down,reagent,"total luciferase, z-score","total luciferase, % of control","luciferase per cell, z-score","viable cells, % of control",call
SULT1C2,2,-0.241,77.1,0.916,67.7,inactive
SULT1C2,3,0.39,89.6,0.104,97.4,inactive
SULT1C2,1,-0.0932,80,-0.565,104,inactive
